Reference: US20030152514A1
These are yes or no findings as the source states them, for the method shown. Some entries that bind do so weakly or less than the wild type.

By UniProt entry, the sequences of proteins in these tests, tags left out. Residues count along the entry.
UniProt P43121, residues 24-559: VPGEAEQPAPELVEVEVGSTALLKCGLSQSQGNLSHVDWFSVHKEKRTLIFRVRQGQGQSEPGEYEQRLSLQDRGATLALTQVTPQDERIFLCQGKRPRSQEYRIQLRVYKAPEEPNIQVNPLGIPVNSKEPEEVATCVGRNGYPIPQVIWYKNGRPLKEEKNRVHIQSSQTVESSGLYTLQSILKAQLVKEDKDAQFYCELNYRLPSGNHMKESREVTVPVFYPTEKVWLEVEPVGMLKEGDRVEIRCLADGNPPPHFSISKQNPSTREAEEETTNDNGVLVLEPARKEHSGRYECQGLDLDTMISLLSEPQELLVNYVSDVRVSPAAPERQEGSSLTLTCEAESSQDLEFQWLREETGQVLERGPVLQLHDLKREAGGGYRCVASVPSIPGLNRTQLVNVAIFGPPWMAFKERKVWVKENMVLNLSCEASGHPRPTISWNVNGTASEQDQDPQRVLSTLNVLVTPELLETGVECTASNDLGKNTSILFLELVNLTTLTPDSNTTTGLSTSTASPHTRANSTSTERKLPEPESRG

Biological target: MUC18 antigen coated on ELISA plates (hybridoma screen) (human) (UniProt P43121)
Assay: antigen-specific ELISA of hybridoma supernatants on antigen coated plates

Row | Binder | binding
1 | anti-MUC18 antibody c6.9 (also independently cloned as c6.12) (antibody, human IgG2, V domains shown) VH: QVQLEQSGPGLVKPSETLSLTCTVSGGSISSGTYHWSWIRQHPGRGLEWIGYIYYSGSTYHNPSLKSRITISVDTSKNQFSLKLSSVTAADTAVYYCARGGDGYRYWGQGTLVTVSS VL: EIVMTQSPATLSVSPGERATLSCRASQSISNNFAWYQQKPGQAPRLLIFGASTRATGIPARFSGSGSGTEFTLTISSLQSEDFAVYYCQQYNNWPRTFGQGTKVEIK | binds
2 | anti-MUC18 antibody c6.2 (antibody, human IgG2, V domains shown) VH: QVQLQESGPGLVKPSETLSLTCTVSGGSISTYYWSWIRQPPGKGLEWIGYIYYTGNTYYNPSLKSRVTVSVDTSKNQFSLKLNSVTAADTAVYYCARDPGQWLVPDAFDIWGQGTMVSVSS VL: DIVMTQSPLSLPVIPGEPASISCRSSQSLLQSNGNNYLDWYLQKPGQSPQLLIYLGSNRASGVPDRFSGSGSGTDFTLKISRVEADDVGIYYCMQALQIPLTFGGGTKVEIK | binds
3 | anti-MUC18 antibody c3.45 (antibody, human IgG2, V domains shown) VH: QVQLVQSGAEVKKPGASVKVSCKASGYTFFSYGFSWVRQAPGQGLEWLGWISAYNGNTNYAQKLQGRVTMTTDTSTSTAYMELRSLRSDDTAVYYCARETKVRGVHYYGMDVWGQGTTVTVSS VL: DIVMTQSPDSLAVSLGERATIICKSSQSILYSSNNKNYLGWYQQKPGQPPKLLIYWASTRESGVPARFSGSGSGTDFTLTINSLQAEDVAVYYCQQYYSTPRSFGQGTMVEIK | binds
4 | anti-MUC18 antibody c3.27 (antibody, human IgG2, V domains shown) VH: QVQLQESGPGLVKPSETLSLTCTVSGGSISSYYWSWIRQPPGKGLEWIGYIYYTWTSNYNPSLKSRVTISVDTSKNQFSLRLSSVTAADTAVYYCARDQGQWLLPDAFDIWGQGTMVTVSS VL: DIQMTQSPSSLSASVGDRVTITCRASQGIRNDLGWYQQKPGKAPKRLIYAASSLQSGVPSRFSGSGSGTEFTLTISSLQPEDFATYYCLQHNSYPWTFGQGTKVEIK | binds

The next lines start with the values.

Row | binding | Binder
5 | binds | anti-MUC18 antibody c3.22 (antibody, human IgG2, V domains shown) VH: QVQLQESGPGLVKPSQTLSLTCTVSGGSISSGGYYWTWIRQHPGKGLEWIGFIYYSGSTYYNPSLKSRVTISVDTSKNQFSLKLSSVTAADTAVYYCAREGDGFDYWGQGTLVTVSS VL: DIQMTQSPSSLSASVGDRVTITCRASQGIRNDLGWYQQKPGKAPKRLIYAASSLQSGVPSRFSGSGSGTEFTLTISSLQPEDFATYYCLQHNSYPLTFGGGTKVEIK
6 | binds | anti-MUC18 antibody c3.10 (antibody, human IgG2, V domains shown) VH: QVQLQESGPGLVKPSETLSLTCTVSGGSISSYYWSWIRQPPGKGLEWIGYIYYTWTTNYNPSLKSRVTISVDTSKNQFSLRLSSVTAADTALYYCARDQGQWLLPDAFDIWGQGTMVTVSS VL: DIQMTQSPSSLSASVGDRVTITCRASQSISNYLNWYQQKPGKAPKLLIYGASSLQSGVPSRFSGSGSGTDFTLTISSLQPEDFATYYCRQSYSTPPECSFGQGTKLEIK
